Assay results taken from PubChem BioAssay AID504375 (National Center for Advancing Translational Sciences (NCATS), 2011).
Screen size: about 1,600 compounds; about 25 (2%) were called active. Roughly 7% stayed inconclusive and do not appear here. Calls follow the shape of the dose curve; as a rule, active = well fitted inhibition curve with a large enough effect; inconclusive = small, poorly fitted or top-dose-only effect, or effect the other way; inactive = no such curve, though single readings can be large or run the other way. This is one part of the list.

Amino acid sequences for entries named in this document (tags omitted).
UniProt Q01196, whole entry, looked up: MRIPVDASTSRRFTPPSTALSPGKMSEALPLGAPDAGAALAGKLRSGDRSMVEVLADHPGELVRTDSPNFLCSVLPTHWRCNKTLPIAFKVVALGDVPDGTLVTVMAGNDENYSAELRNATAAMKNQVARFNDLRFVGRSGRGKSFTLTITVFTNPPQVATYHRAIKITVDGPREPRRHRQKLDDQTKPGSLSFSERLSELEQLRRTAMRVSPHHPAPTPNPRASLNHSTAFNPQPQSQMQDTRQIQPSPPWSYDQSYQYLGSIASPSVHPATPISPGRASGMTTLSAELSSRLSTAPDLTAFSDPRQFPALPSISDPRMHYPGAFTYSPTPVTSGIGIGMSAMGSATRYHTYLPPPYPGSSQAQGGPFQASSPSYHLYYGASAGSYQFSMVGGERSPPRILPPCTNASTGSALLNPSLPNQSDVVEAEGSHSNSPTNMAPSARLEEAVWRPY
UniProt Q13951, whole entry, looked up: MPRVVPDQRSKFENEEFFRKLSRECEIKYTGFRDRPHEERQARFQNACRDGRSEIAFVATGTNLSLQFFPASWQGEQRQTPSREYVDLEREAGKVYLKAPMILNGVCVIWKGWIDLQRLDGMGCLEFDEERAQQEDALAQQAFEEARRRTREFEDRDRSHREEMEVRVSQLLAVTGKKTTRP

Biological target: Runt-related transcription factor 1 (Homo sapiens) + Core-binding factor subunit beta (Homo sapiens) (UniProt Q01196+Q13951)
Test: qHTS Assay for Compounds Blocking the Interaction Between CBF-beta and RUNX1 for the Treatment of Acute Myeloid Leukemia: Hit Validation with Orthogonal Assay
Conditions: CBFbeta-RUNX1 binding orthogonal assay, biochemical; series mostly up to 41 µM; activity change, negative = inhibition: at the top concentration
From the text: NIH Chemical Genomics Center [NCGC]
NIH Molecular Libraries Probe Production centers Network [MLPCN]
Assay Submitter (PI): Paul Liu
Core Binding Factor (CBF) abnormalities are associated with 20-25% of all acute myeloid leukemias (AML), of which 5-10% are further sub classified as acute myelomonocytic leukemia with eosinophilia, also known as M4Eo in the FAB classification scheme. This subtype of leukemia is usually associated with chromosome 16 inversion (p13:q22). Chromosome 16 inversion results in formation of the fusion oncogene CBFB-MYH11, which encodes the fusion protein CBF-beta-SMMHC.
It has been hypothesized that the interference of CBF-beta and RUNX1 binding could have therapeutic implications for patients with CBF mediated leukemias. We developed a CBF-beta and RUNX1 binding assay in AlphaScreenTM format and optimized it for high throughput screening to search for inhibitors. The goal of this project is to screen MLPCN's compound collection (MLSMR) for identifying the inhibitors of the interaction between CBF-beta and RUNX1 proteins as research probes. If these probes work well in the animal models, the ultimate goal of this project is to development a new drug treatment for this disease.
This assay can not be used to assess how apparent inhibitors interfere with protein binding, and whether inhibitors specifically bind to either protein. Disruption of this protein-protein interaction, through any mechanism, is the intended target activity.
The present data set was run to confirm the activity of hits from the primary screen using an orthogonal assay technology for measuring protein-protein interaction disruption.
A TR-FRET (time resolved fluorescence resonance energy transfer) assay was performed using the same assay buffer, protein concentrations and incubation times as described previously in the AlphaScreen assay, except that terbium (Tb+) labeled anti-his-antibody and XL665 linked streptavidin were used to capture the binding signal. The Tb+ labeled anti-his-antibody captures His(6)-CBF and XL665 linked streptavidin binds to biotin-RUNX1. The binding of RUNX1 to CBFbrings Tb+ and XL665 to proximity resulting in a TR-FRET signal. Briefly, in a white 384-well plate, 10 µl/well of mixture of biotin-RUNX1 and His(6)-CBFwere incubated with 10 µl/well buffer (positive control) or 10 µl/well compounds (negative control) for 20 min followed by an addition of 10 µl/well of Tb+ labeled anti-his(6)-antibody and XL665 linked streptavidin. After 90 min of incubation in the dark, the assay plate was measured in the Envision plate reader using TR-FRET detection mode. For the 1536-well plate format, 3 µl/well mixture of biotin-RUNX1 and His(6)-CBF (30 nM per protein) was incubated with 23 nl/well compound (dissolved in 100% DMSO) or the equivalent DMSO concentration (positive control) for 30 min followed by the addition of 1 µl/well of 0.44 ng Tb+ labeled anti-his(6)-antibody and 5 nM streptavodin-XL665. After 90 min of incubation, the assay plate was measured in the Envision plate reader.
The TR-FRET assay for detecting interaction between HIV-I Tat and […] was similarly performed with the recombinant full-length HIV-I Tat CLADE B and HIV-I Tat Biotin conjugated proteins supplied by Diatheva (Fano, Italy). Briefly, the His-CBF and Biotin-RUNX1 complex at a working concentration of 83.3 nM per protein were pre-incubated in assay buffer for 10 minutes on ice. Then HIV-I Tat or unlabeled CBF were added to reach final concentrations (Supplementary Figure 4b) and incubated for 5 minutes. Finally anti-His antibody and streptavidin-XL665 at a final concentration of 2.2 ng and 5 nM, respectively, were added to the plate, which was incubated for 1 hr prior to reading on the PerkinElmer Envision plate reader.
Keywords: MLSMR, MLPCN, NIH Roadmap, qHTS, NCGC, Core binding factor, CBF, CBF-beta, Acute myeloid leukemia
% is scaled to controls: 0 for no effect and ±100 for the full control effect; potency is read from the fitted curve at half-maximal effect.

Activity change, negative = inhibition, inactive:
COCc1cc(=O)n2[nH]c(-c3ccco3)cc2n1 4.87%, CC(C)COC(=O)NC1c2ccccc2Oc2ccccc21 6.52%, CC(C)(C)c1csc(Sc2ccc([N+](=O)[O-])cn2)n1 42.4%, Cn1c(NC(=O)c2ccc(F)cc2)c(-c2cccs2)c(=O)c2ccccc21 7.39%, O=C(Cc1n[nH]c(=O)c2ccccc12)OCc1c(Cl)cccc1Cl 12.9%, COc1ccc(-c2nnsc2N2C(=O)c3ccccc3C2=O)cc1 14.2%, O=C(CN1CCN(S(=O)(=O)c2ccc(Cl)s2)CC1)N1CCOCC1 10.6%, CC(=O)/C=C(\C)N=Nc1c(O)[nH]c2ccccc12 21.1%, CC(C)N(Cc1ccccc1)C(=O)c1ccc2nsnc2c1 18%, COc1ccc(C(=O)NC(=S)NNC(=O)c2c(-c3ccccc3)noc2C)cc1OC 1.53%, CCOC(=O)CSc1nnc(Cn2nnc3ccccc32)n1-c1ccc(F)cc1 -7.13%, Cc1nc(-c2ccc3c(c2)CCC(=O)N3)cs1 11.6%, O=C(N/N=C/C1=Cc2ccccc2OC1)c1ccncc1 29.3%, COc1cc(OC)c(OC)cc1/C=N/NC(=O)CCc1c(C)n[nH]c1C 18.8%, CC(C)(C)Sc1ccc([N+](=O)[O-])cc1C(=O)Nc1ccncc1 29.8%, O=C(Oc1c(-c2ccccc2)c(=O)n2c3c(cccc13)CC2)c1ccc(F)cc1 6.68%, COc1cccc(NC(=O)C(=O)NCCc2ccc(F)cc2)c1 1.5%, Nc1ncnc2c1ncn2C1OC(CO)C(O)C1N (stereo unspecified) -6.45%, Cc1ccc(C(=O)COc2cc(C)nc3nncn23)cc1 -2.28%, Cc1ccnn1CC(=O)N/N=C/c1cn[nH]c1-c1ccc(F)cc1 2.29%, O=C(NNC(=O)C(Cl)Cl)c1cnn(-c2ccccc2)c1C(F)(F)F 1.06%, COc1cccc(Nc2ncc(C#N)c(N)n2)c1 10%, Clc1c(Cl)c(Cl)c2n[nH]nc2c1Cl 4.26%, COc1ccccc1C1CCN(C(=O)c2cccs2)CC1 1.7%, Cc1nn(-c2ccccc2)nc1-c1nnc(-c2ccc(C(F)(F)F)cc2)o1 -5.37%, CCN(CC)C(=N)/C(C#N)=N/Nc1ccc(C)cc1 38.4%, CCCc1c(NC(=O)Nc2ccc(F)cc2)cnn1-c1ccccc1 -5.71%, CC(=O)Nc1ccc(S(=O)(=O)Nc2ccc(C(=O)NCC(=O)O)cc2)cc1 14.8%, Cc1cc(NC(=O)c2c(-c3c(F)cccc3Cl)noc2C)no1 -9.43%, COc1cc(NC(N)=S)c(OC)cc1Cl 0.171%, CCOc1ccc(N=C/C=C/c2ccccc2)c(O)c1 15.7%, CNC(=O)COC(=O)c1ccc(Cl)c(S(N)(=O)=O)c1 -2.83%, CCOc1ccc(/C=C2\CCc3ccccc3C2=O)cc1 8.98%, COc1ccccc1N1C(=O)[C@@H]2[C@H](C1=O)[C@H](C(=O)c1ccc(OC(C)=O)cc1)N1N=CC=C[C@@H]21 21.1%, CCC1(CC)Nc2ccccc2C(=O)N1c1ccc(OC)cc1 -1.48%, O=C(Nc1ccc(C(F)(F)F)cn1)Nc1cccs1 13.6%, Clc1ccc(CSc2nncn2-c2ccc3c(c2)OCCO3)cc1 0.758%, COc1ccccc1C1CCN(C(=O)c2ccco2)CC1 13.8%, CCCSc1sc(C(=O)OC)c(-c2cccs2)c1C#N 22.2%, c1ccc(-c2nnc(-c3ccccn3)nc2NC2CCCCC2)cc1 -3.48% [at 82.4 µM], COc1ccc(OS(=O)(=O)c2c(C)noc2C)cc1 14.1%, CC(C)(C)c1ccc(NC(=O)c2ccsc2)cc1 12.4%, NS(=O)(=O)c1ccc(N/N=C/c2ccc(C(=O)O)cc2)c([N+](=O)[O-])c1 94.8%, COC(=O)c1ccc(C(=O)NN)cc1 6.01%, Cn1c(=O)c2c(nc(N3CCOCC3)n2C/C=C/c2ccccc2)n(C)c1=O -3.46%, CCOC(=O)CC(=O)CSc1nc(CC)c(C)cc1C#N 22.5%, O=C(Nc1ccc(Cl)cc1)N1CCCC(Cn2cccc2)C1 (stereo unspecified) -9.6%, COc1cc(NC(=S)NCCO)c(OC)cc1Cl -0.0734%, CC[C@H](C)[C@H](NC(=O)c1ccccc1)C(=O)Nc1ccc(S(=O)(=O)Nc2cc(C)nc(C)n2)cc1 -7.81%, Cc1ccc(/C(O)=C/C(=O)C(=O)NC23CC4CC(CC(C4)C2)C3)cc1 -1.96%, CCCCCCCc1c(O)nc(SCC(=O)O)[nH]c1=O 7%, CCCC1=NN(C(=O)Cc2ccc(OC)c(OC)c2)C(O)(C(F)(F)F)C1 (stereo unspecified) 0.648%, COC(=O)Cc1cccc2c(=O)c3ccccc3oc12 8.11%, Clc1ccc(Nc2cc(-c3ccccc3)nc3ncnn23)cc1 -2.73%, COC(=O)[C@H](CCSC)NC(=O)Nc1cc(OC)cc(OC)c1 -10.5%, COCc1cc(=O)[nH]c2c1c(-c1ccccc1)nn2C -2.96%, Cc1ccc(S(=O)(=O)NNC(=O)c2cnn(-c3ccc(Cl)cc3)c2C(F)(F)F)cc1 7.1%, O=P(O)(O)c1cc(-c2ccccc2)oc1-c1ccccc1 5.32%, S=C(Nc1ccccc1)N1CCCN1c1ccccc1 3.85%, COC(=O)c1c(NS(=O)(=O)c2ccccc2)csc1C 0.55%, CCOc1ccc(-c2noc(-c3cccnc3)n2)cc1OCC 2.13%, Clc1ccc(/C=C/c2nc(Cl)c(-c3ccc(Cl)cc3)c(Cl)n2)cc1 4.77%, CCc1nc2ccccc2nc1N1CCN(S(=O)(=O)c2ccc(Cl)cc2)CC1 0.844%, CC1CN(S(=O)(=O)c2cccc(C(F)(F)F)c2)CC(C)O1 (stereo unspecified) -18.1%, Cc1onc(-c2c(F)cccc2Cl)c1C(=O)Nc1ccccc1N1CCOCC1 -8.27%, NC(=O)CNC(=O)c1cccc(Cl)c1 -0.196%, CCOC(=O)C1CCCN(C(=O)Nc2c(-c3ccccc3)noc2C)C1 (stereo unspecified) 10.8%, CCOC(=O)/C=C(\C)Sc1cc(O)c2ccccc2c1O 66.2%, CCCCOC(=O)CCc1c(C)n[nH]c1C -0.0856%, O=C(COc1ccc(Cl)cc1)N(Cc1ccco1)C1CCS(=O)(=O)C1 (stereo unspecified) -7.45%, O=C(O)CC(CCc1ccccc1)OC1OC(CO)C(O)C(O)C1O (stereo unspecified) -29.1%, Cc1ccn(C)c(=N)c1 -5.75%, CCOC(=O)N1CCc2c(sc(N)c2C#N)C1 8.69%, OCCNc1nc2ccccc2nc1NCCO 0.991%, CCn1nc(NC(=O)Cc2ccc(OC)cc2)c2cc3cc(C)ccc3nc21 21%

Potency, active:
O=C1c2ccccc2C(=O)N1/N=C/c1ccc(O)c(O)c1O 2.82 µM
